## Screening data, single-dose tests

Sequences of proteins named here, by UniProt entry; tags and fusion partners are left off.
UniProt P9WNZ1, whole entry: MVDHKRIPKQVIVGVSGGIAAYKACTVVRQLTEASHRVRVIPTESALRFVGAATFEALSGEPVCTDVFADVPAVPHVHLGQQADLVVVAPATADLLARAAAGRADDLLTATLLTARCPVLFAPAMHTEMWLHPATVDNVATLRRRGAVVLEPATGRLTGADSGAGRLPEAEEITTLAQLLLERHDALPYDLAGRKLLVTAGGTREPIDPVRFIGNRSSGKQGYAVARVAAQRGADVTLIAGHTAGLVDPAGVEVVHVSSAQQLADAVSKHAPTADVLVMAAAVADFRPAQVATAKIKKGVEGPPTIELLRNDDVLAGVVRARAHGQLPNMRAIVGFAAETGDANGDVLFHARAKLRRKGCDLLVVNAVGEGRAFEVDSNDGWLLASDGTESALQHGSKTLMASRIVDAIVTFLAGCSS

Data taken from ChEMBL document CHEMBL3988442, “University of Dundee, Small-Polar-MMV Screening Library” (2021).

A: 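Cell assay of Leishmania donovani living inside macrophages; the read-out is not stated. Compounds at 30 µM. Direction is inferred from retests: higher values go with stronger inhibition. About 69,000 compounds were tested under these conditions; 1.5% (about 1,000) showed 50% or more at least once.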
B: 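Enzyme assay of CoaBC with a phosphate dye (Biomol Green) read at 650 nm. Target: Coenzyme A biosynthesis protein CoaBC, Mycobacterium tuberculosis (UniProt P9WNZ1). Concentration: 30 µM. Higher reads as stronger inhibition, judged from the few compounds that gave an IC50. Most strong results did not repeat in a second test. Size under these conditions: about 67,000 compounds, about 40 of them at 50% or above in at least one test.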

Each number is a percent effect as filed.
How 0% and 100% were set is not recorded. Most values in the screen are low, and negative values occur.
This is an unselected part of the compounds tested.
Two or more numbers in one place are separate tests of the same structure; such repeats can differ widely.

{"compound": "CS(=O)(=O)c1ccc(NC(=O)NC2(c3cccc(F)c3)CC2)cc1", "A": -2.225, "B": 0.2301}
{"compound": "CC(C)NC(=O)c1cc(Br)cc(S(=O)(=O)N2CCOCC2)c1F", "A": -14.69}
{"compound": "CCOCCSc1nnc(-c2cn(CC)nc2OCC)n1C", "A": 21.89, "B": 3.704}
{"compound": "O=C1N(Cc2cccnc2)CCC12CCCN(c1ncccn1)C2", "stereo": "centres unmarked", "B": 0.7317}
{"compound": "CCc1ccc(CNC(=O)N2CCN(Cc3cc(C)on3)CC2)s1", "A": -10.31, "B": 1.136}
{"compound": "Cc1cc(F)ccc1NC(=O)Cn1cc(C(=O)O)ccc1=O", "A": 15.23, "B": 8.351}
{"compound": "OC(CN1CCCc2ccc(F)cc21)Cn1cccn1", "stereo": "centres unmarked", "A": 16.54, "B": -10.43}
{"compound": "COCCc1noc(CN2CCCCC2Cn2cncn2)n1", "stereo": "centres unmarked", "A": 10.33, "B": 3.169}
{"compound": "CC(=O)N1CC(=O)N(c2ccccc2)CC12CCN(Cc1ccoc1)C2", "stereo": "centres unmarked", "B": 7.294}
{"compound": "CN1CCCC1c1cc2cccnc2n1Cc1ccc(F)cc1", "stereo": "centres unmarked", "B": -7.645}
{"compound": "COc1ccccc1-n1c(CC(C)C)nnc1SCC(=O)O", "A": 32.05, "B": -3.688}
{"compound": "COCCCNC(=O)c1cc(OC)c2ccoc2c1", "A": 3.643, "B": 4.046}
{"compound": "Cn1nc(COc2cccnc2)c2c1CCN(c1cnccn1)C2.O=CO.O=CO", "A": -2.364}
{"compound": "Cc1ccc2nc(CNCCCOc3ccccc3)cc(O)c2c1", "A": 32.04, "B": 2.826}
{"compound": "CC(NC(=O)N1CCN(CCc2ccccc2)CC1)c1nncn1C", "stereo": "centres unmarked", "A": 6.395, "B": 4.824}
{"compound": "CC(CCn1cccn1)Nc1ccc(-c2nccn2C)nn1", "stereo": "centres unmarked", "A": -22.36, "B": 6.341}
{"compound": "CN(C)C(=O)c1cncnc1-c1ccc(CNC(=O)C2CCCO2)cc1", "stereo": "centres unmarked", "A": -46.25, "B": -14.29}
{"compound": "CC(C)N(CCO)C(=O)C1CCC(=O)N(CCc2cccc(F)c2)C1", "stereo": "centres unmarked", "A": 21.22, "B": -0.4969}
{"compound": "CCCc1ccc(CN2CCC3(CC2)CNC(=O)C3)o1", "A": 5.316, "B": 8.518}
{"compound": "COc1ncccc1CNC(=O)c1cc(Cl)ccn1", "A": 17.93, "B": 4.211}
{"compound": "CN1CCC(N2CC[C@H](c3nc4ccc(C(F)(F)F)cc4[nH]3)C2)CC1", "A": 39.04, "B": -14.67}
{"compound": "CSCCC(=O)N1C[C@H](Nc2ccnc(C)n2)[C@@H](C(C)C)C1", "A": -2.009, "B": 1.145}
{"compound": "CC(C)Cc1cc(CNC(=O)c2cccc3c2OCC3)no1", "A": 33.54, "B": 2.676}
{"compound": "CC(C)c1nc2n(n1)CC(NCCc1cccs1)CC2", "stereo": "centres unmarked", "A": 3.268, "B": -3.846}
{"compound": "O=C1CC(c2ccsc2)c2sc(C(=O)O)c(-c3ccccc3)c2N1", "stereo": "centres unmarked", "A": 7.386, "B": 10.53}
{"compound": "Cc1noc(C)c1-c1cc(CCC2CN(C(=O)C(C)C)CCO2)ncn1", "stereo": "centres unmarked", "A": 13.93, "B": 0}
{"compound": "CCc1ccccc1Nc1noc2c1CN(C(=O)C1CCCO1)CC2", "stereo": "centres unmarked", "A": "11.36 & 6.624", "B": 0.2433}
{"compound": "COc1ncccc1CN1C[C@H](C(=O)N2CCCO2)[C@@H]2CCO[C@@H]2C1", "B": 5.484}
{"compound": "CC(CCc1ccccc1)NC(=O)CNCCCN(C)C", "stereo": "centres unmarked", "B": -18.47}
{"compound": "O=C(NCc1ccc2c(c1)OCO2)c1ccccc1C1CCNC1", "stereo": "centres unmarked", "A": 0.1898, "B": 5.19}
{"compound": "CCN(CCn1cccn1)Cc1nc(-c2cccc(C)c2)oc1C", "A": 19.61, "B": -0.1972}
{"compound": "COc1ccc(C[C@H]2CN(C(=O)c3ccncc3)CC[C@@H]2OC)cc1", "B": -2.66}
{"compound": "CCC(CC)CN1CCC(n2cc(C3CCCC3)nn2)CC1", "A": 20.91, "B": 4.884}
{"compound": "CN(C)C(=O)c1cc(-c2ccncc2)[nH]n1", "A": 5.424, "B": 4.854}
{"compound": "O=C(O)C(F)(F)F.[H][C@@]12CCCO[C@]1([H])[C@@H](Oc1ccccn1)CN2C(=O)c1ccoc1C", "A": 22.48}
{"compound": "CCOC(=O)CCCNC(=O)CN1CCN(c2ncccn2)CC1", "A": 14.2, "B": -2.273}
{"compound": "CCNC(=O)c1nnc2ccc(N3CCOCC3)cc2n1", "A": -40.42, "B": 1.48}
{"compound": "Cn1cc(CN2CCCC3(COCCN(Cc4c[nH]nn4)C3)C2)cn1", "stereo": "centres unmarked", "B": 0.9772}
{"compound": "CC(C)Cc1nc(CCn2ccc(=O)[nH]c2=O)n(-c2ccccn2)n1", "A": 29.53, "B": -4.959}
{"compound": "O=C(O)c1ccc2c(c1)C1(CCCCC1)CN2C(=O)c1cccc(F)c1", "A": -19.01, "B": 0}
{"compound": "O=C(c1ccccc1-c1ccccc1)N1C[C@@H]2CNC[C@]2(C(=O)O)C1", "B": 0.2114}
{"compound": "O=C(c1ccc(Cl)s1)N1CCCn2nc(CN3CC[C@H](F)C3)cc2C1", "A": 7.672, "B": 4.623}
{"compound": "COC(=O)CC(c1ccc(OC)c(O)c1)c1oc(C)cc(=O)c1O", "stereo": "centres unmarked", "A": -14.2, "B": 0.2545}
{"compound": "CCOC(=O)N1CC(C)=C(C)CN1C(=O)Nc1ccc(Cl)c(Cl)c1", "A": 22.07, "B": -0.6135}
{"compound": "CN(C)c1nc(N)nc(CN2CCCC2c2ccsc2)n1", "stereo": "centres unmarked", "A": 83.34, "B": 8.76}
{"compound": "Cc1nc(CN(C)C2CCN(Cc3sc(C)nc3C)C2)no1", "stereo": "centres unmarked", "A": 27.2, "B": 6.177}

The first 4 entries again:

{"compound": "CS(=O)(=O)c1ccc(NC(=O)NC2(c3cccc(F)c3)CC2)cc1", "A": -2.225, "B": 0.2301}
{"compound": "CC(C)NC(=O)c1cc(Br)cc(S(=O)(=O)N2CCOCC2)c1F", "A": -14.69}
{"compound": "CCOCCSc1nnc(-c2cn(CC)nc2OCC)n1C", "A": 21.89, "B": 3.704}
{"compound": "O=C1N(Cc2cccnc2)CCC12CCCN(c1ncccn1)C2", "stereo": "centres unmarked", "B": 0.7317}